Test results as given in the supplement of paper PMC10849652.
Some of the results follow.

The chains behind the UniProt entries cited, without tags or fusion partners. Where a name states a change or a piece, a line headed by the entry shows the natural chain unless it says otherwise.
UniProt Q9BPY3: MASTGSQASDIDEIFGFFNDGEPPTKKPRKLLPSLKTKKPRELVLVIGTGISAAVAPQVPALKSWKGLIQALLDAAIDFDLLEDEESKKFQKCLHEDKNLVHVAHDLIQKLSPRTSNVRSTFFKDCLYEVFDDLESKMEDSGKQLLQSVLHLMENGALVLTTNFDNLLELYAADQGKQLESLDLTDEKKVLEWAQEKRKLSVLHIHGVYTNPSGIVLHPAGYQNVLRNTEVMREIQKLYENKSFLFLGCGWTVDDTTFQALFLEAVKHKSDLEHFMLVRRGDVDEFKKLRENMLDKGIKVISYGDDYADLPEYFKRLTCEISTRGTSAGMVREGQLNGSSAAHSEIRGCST
UniProt P16930: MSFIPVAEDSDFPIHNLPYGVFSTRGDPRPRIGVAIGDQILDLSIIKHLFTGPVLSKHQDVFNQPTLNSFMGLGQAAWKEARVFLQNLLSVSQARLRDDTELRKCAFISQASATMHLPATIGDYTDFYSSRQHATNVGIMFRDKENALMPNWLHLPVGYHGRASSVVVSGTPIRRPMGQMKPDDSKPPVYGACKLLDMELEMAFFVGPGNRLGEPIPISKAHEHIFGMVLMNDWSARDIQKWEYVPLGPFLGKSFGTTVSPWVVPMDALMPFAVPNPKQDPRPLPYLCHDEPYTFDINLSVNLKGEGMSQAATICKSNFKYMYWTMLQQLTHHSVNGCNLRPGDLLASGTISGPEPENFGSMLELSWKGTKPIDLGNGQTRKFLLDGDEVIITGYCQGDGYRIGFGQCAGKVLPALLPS
UniProt Q96RI0: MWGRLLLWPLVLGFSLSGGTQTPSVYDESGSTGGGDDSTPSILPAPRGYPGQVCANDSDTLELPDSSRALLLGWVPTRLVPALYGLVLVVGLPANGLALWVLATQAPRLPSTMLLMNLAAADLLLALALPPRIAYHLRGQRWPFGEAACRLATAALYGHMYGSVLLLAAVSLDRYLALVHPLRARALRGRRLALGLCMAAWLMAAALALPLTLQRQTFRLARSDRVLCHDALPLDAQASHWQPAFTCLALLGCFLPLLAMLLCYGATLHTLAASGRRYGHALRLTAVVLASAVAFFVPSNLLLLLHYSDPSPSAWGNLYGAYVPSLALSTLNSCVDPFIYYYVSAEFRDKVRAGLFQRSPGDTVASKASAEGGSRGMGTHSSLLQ
UniProt Q9Y2C4: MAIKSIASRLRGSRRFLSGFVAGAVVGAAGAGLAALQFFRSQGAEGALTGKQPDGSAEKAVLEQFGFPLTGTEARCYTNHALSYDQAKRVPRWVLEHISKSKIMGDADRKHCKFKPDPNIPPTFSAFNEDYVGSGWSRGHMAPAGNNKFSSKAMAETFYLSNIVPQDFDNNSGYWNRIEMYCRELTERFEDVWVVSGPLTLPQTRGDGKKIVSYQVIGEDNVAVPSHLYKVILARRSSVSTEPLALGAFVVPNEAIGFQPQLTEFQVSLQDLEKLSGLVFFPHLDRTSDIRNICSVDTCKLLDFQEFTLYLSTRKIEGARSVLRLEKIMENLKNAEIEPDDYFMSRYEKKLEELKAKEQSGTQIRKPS
UniProt Q7Z309: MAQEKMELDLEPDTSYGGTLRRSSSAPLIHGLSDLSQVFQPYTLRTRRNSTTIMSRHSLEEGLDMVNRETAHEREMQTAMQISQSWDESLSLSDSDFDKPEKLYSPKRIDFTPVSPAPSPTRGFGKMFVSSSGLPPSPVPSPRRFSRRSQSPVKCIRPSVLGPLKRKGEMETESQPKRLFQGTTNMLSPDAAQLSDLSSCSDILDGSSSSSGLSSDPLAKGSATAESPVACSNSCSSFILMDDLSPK
UniProt O75616: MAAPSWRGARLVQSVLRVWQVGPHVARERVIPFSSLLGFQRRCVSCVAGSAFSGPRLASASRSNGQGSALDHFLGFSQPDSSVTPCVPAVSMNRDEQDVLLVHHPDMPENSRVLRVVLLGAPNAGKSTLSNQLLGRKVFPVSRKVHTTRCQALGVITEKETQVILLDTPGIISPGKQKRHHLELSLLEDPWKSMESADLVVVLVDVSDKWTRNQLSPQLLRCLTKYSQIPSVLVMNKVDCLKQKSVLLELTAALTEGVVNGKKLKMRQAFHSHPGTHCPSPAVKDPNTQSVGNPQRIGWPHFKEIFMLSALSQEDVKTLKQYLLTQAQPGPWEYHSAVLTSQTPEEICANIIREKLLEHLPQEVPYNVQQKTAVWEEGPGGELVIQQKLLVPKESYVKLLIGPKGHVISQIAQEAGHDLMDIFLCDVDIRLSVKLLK
UniProt Q9H6S3: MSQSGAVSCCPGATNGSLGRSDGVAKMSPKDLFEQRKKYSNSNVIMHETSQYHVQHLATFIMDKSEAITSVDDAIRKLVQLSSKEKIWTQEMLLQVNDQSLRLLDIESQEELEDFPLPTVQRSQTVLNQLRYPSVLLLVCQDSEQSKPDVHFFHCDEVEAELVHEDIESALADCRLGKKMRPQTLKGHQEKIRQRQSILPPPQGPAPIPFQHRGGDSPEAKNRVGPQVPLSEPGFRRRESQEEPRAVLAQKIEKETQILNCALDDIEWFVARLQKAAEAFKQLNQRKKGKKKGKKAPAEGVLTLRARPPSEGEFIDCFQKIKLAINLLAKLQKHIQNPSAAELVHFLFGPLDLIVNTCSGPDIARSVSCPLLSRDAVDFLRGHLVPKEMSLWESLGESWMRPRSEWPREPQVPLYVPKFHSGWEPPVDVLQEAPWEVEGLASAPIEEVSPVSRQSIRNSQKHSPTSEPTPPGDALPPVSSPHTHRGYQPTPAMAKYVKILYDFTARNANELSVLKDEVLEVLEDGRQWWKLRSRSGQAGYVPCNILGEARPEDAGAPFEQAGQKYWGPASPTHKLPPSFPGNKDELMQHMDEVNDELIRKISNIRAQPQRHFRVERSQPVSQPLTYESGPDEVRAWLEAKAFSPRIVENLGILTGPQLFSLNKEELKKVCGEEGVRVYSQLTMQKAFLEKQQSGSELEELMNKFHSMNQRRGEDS
UniProt Q8WUF8: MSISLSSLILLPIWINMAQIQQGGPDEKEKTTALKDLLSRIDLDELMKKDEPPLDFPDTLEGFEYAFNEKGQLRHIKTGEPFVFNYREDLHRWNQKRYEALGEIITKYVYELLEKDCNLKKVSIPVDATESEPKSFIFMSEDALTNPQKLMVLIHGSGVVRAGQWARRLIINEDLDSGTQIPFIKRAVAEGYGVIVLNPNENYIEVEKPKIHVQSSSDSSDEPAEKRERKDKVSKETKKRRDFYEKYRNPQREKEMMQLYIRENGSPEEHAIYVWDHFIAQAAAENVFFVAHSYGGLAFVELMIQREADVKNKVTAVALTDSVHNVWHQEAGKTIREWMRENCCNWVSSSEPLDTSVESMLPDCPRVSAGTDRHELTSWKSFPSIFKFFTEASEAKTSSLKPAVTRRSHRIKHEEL
UniProt Q92817: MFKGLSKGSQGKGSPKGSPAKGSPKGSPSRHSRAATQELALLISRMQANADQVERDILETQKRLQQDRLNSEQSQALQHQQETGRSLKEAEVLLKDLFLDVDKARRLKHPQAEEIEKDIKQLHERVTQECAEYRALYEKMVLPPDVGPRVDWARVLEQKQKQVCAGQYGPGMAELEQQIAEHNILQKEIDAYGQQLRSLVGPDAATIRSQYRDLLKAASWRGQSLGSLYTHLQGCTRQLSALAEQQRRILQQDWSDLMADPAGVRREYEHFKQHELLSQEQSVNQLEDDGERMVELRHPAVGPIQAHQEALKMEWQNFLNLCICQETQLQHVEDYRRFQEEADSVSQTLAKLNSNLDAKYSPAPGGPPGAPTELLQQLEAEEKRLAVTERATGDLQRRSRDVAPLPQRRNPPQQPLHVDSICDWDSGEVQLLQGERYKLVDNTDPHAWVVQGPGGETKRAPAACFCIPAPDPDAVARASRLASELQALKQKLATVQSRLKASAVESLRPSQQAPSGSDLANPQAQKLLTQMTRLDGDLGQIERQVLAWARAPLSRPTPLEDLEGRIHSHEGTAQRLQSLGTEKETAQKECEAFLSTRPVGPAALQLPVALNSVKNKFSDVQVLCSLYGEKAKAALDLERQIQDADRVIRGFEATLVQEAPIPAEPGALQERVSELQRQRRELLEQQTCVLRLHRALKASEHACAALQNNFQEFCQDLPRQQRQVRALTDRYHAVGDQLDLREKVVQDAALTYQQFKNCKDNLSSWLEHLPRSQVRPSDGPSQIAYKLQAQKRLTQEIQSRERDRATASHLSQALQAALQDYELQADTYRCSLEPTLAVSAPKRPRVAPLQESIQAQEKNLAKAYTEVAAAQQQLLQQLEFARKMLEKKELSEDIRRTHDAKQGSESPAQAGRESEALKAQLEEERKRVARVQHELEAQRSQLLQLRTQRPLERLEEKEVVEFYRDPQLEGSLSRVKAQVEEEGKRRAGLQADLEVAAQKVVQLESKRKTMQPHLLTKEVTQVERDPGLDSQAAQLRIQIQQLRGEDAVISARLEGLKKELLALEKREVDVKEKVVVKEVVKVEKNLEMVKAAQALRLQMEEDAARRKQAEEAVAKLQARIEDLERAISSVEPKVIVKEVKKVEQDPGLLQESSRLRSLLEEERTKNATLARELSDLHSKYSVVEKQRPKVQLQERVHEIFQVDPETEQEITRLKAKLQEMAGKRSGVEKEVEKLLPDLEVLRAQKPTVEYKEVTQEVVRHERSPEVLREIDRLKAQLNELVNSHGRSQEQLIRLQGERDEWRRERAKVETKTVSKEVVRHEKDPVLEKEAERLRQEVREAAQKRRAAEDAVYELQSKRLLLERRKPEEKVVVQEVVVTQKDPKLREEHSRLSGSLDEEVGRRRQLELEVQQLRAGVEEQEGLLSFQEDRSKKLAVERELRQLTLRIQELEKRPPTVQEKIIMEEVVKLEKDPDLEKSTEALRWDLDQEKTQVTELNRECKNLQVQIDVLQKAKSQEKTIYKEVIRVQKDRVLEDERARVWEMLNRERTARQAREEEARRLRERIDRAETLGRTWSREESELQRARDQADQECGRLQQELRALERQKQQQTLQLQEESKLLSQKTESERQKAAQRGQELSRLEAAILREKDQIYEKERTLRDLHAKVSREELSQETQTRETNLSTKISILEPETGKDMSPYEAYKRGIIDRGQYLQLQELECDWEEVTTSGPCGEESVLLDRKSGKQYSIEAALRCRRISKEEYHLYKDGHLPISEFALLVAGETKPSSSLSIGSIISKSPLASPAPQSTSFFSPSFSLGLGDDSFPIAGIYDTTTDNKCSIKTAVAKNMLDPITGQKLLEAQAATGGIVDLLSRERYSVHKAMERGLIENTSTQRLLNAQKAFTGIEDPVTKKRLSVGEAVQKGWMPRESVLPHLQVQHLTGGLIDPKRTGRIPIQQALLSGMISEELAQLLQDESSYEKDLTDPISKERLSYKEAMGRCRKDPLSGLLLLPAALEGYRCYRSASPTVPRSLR
UniProt Q13216, whole entry, looked up: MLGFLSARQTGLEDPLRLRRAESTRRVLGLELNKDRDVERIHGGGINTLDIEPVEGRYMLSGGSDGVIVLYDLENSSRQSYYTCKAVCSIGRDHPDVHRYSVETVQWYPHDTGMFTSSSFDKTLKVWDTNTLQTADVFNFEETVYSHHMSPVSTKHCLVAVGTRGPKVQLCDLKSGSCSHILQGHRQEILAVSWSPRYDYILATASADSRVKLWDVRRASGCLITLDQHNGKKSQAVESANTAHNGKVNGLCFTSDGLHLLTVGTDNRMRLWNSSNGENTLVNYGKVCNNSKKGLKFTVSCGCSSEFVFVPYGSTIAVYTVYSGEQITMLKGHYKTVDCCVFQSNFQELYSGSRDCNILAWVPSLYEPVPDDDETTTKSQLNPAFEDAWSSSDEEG
UniProt Q15910, whole entry, looked up: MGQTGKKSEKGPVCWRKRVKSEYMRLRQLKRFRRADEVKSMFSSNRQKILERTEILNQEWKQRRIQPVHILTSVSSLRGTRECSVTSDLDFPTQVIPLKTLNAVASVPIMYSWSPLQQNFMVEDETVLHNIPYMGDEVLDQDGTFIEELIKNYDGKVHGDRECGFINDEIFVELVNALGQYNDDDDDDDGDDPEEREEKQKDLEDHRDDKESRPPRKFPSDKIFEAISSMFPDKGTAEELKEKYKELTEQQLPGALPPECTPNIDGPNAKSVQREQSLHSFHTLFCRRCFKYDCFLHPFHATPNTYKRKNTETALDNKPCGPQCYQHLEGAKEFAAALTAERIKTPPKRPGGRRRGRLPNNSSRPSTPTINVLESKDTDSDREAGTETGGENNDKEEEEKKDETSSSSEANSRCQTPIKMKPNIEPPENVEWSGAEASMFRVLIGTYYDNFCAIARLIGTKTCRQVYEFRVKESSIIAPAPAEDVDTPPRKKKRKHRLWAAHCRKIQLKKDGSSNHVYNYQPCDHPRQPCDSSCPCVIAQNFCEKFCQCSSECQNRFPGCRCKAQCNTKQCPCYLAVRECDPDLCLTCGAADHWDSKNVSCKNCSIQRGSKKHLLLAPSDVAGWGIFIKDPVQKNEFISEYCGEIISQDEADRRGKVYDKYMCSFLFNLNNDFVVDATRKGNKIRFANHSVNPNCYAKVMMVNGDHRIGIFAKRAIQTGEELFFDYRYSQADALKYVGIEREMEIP

Key:
Assay in all cases: log2 fold change, soluble protein after heating vs DMSO (PISA); higher = thermal stabilisation; K562 cells, 10 uM, 30 min; active = over 0.2 and 3.5 SD of the protein, either way, in both replicates (recomputed)
[1] = compound: CC1=C(C=C(C=C1)NC(=O)C2=CC(=CC=C2)C(C)(C)C#N)NC3=CC4=C(C=C3)N=CN(C4=O)C
Outline: (§1)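 Soluble protein was defined as the supernatant after 21,000xg for 90 min. It came from K562 cells at 2×10^6 cells/mL given 10 μM compound for 30 min, heated in aliquots for 3 min across 48°C-58°C, pooled, and extracted in PBS with 0.5% NP-40 at 4°C, and was quantified by TMTpro 16plex LC-MS/MS with equalised channel sums. Thermal stability against control samples, from duplicates, is reported as log2 fold change.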

[2] = compound: CC1=C(C=C(C=C1)NC(=O)C2=CC(=CC=C2)N(C)C)NC(=O)C3=CC=C(C=C3)O
Outline: as §1

[3] = compound: CC1=CC=C(C=C1)SC2=C3C=C(SC3=CN=C2)C(=O)N
Outline: as §1

[4] = compound: CC1=NC(=CC=C1)C2=C(N=C(N2)C(C)(C)C)C3=CC4=NC=CN=C4C=C3
Outline: as §1

Nexturastat A = compound: CCCCN(Cc1ccc(C(=O)NO)cc1)C(=O)Nc1ccccc1 [Nexturastat A]
Outline: as §1

vemurafenib = compound: CCCS(=O)(=O)Nc1ccc(F)c(C(=O)c2c[nH]c3ncc(-c4ccc(Cl)cc4)cc23)c1F [vemurafenib]
Outline: as §1

[5] = compound: CCCS(=O)(=O)Nc1ccc(F)c(C(=O)c2c[nH]c3ncc(Cl)cc23)c1F
Outline: as §1

[6] = compound: CCCc1cc(C)[nH]c(=O)c1CNC(=O)c1cc(-c2ccnc(N3CCN(C)CC3)c2)cc2c1cnn2C(C)C
Outline: as §1

givinostat = compound: CCN(CC)Cc1ccc2cc(COC(=O)Nc3ccc(C(=O)NO)cc3)ccc2c1 [givinostat]
Outline: as §1

barasertib = compound: CCN(CCCOc1ccc2c(Nc3cc(CC(=O)Nc4cccc(F)c4)[nH]n3)ncnc2c1)CCOP(=O)(O)O [barasertib]
Outline: as §1

Measured: log2 fold change

FAM118B (UniProt Q9BPY3)
inactive: [1] 0 | [2] 0.03 | [3] 0.037 | [4] 0.055 | Nexturastat A 0.099 | vemurafenib 0.048 | [5] 0.003 | [6] 0.044 | givinostat 0.063 | barasertib 0.093

FAH isoform 2 (UniProt P16930)
inactive: [1] 0.043 | [2] 0.061 | [3] -0.023 | [4] -0.007 | Nexturastat A -0.171 | vemurafenib -0.046 | [5] -0.02 | [6] -0.104 | givinostat 0.057 | barasertib 0.015

FAM193B (UniProt Q96PV7)
inactive: [1] -0.16 | [3] -0.114 | [4] -0.034 | Nexturastat A 0.054 | vemurafenib -0.114 | [5] 0.005 | barasertib 0.045

F2RL3 (UniProt Q96RI0)
inactive: [2] 0.032 | [3] 0.053 | vemurafenib -0.156 | [5] 0.035 | givinostat -0.06

EXOG (UniProt Q9Y2C4)
inactive: [2] -0.179 | [3] -0.186 | vemurafenib -0.162 | [5] -0.167 | [6] 0.114

EVI5 isoform 2 (UniProt O60447)
inactive: [2] -0.109 | [3] -0.078 | vemurafenib 0.133 | [5] 0.162 | givinostat 0.155

F10 (UniProt P00742)
inactive: [1] -0.016 | [2] 0.331 | [4] 0.118 | Nexturastat A 0.056 | vemurafenib 0.085 | [6] -0.063 | givinostat 0.067 | barasertib -0.032

FAM122B isoform 3 (UniProt Q7Z309)
inactive: [1] -0.032 | [2] -0.03 | [4] -0.079 | Nexturastat A 0 | vemurafenib 0.009 | [6] 0.1 | givinostat 0.002 | barasertib 0.01

EPS15L1 (UniProt M0QY01)
inactive: [1] 0.099 | [4] -0.004 | Nexturastat A 0.167 | vemurafenib -0.001

Reprinted from the results shown (2 entries):
FAM122B isoform 3 (UniProt Q7Z309)
inactive: [1] -0.032 | [2] -0.03 | [4] -0.079 | Nexturastat A 0 | vemurafenib 0.009 | [6] 0.1 | givinostat 0.002 | barasertib 0.01

EPS15L1 (UniProt M0QY01)
inactive: [1] 0.099 | [4] -0.004 | Nexturastat A 0.167 | vemurafenib -0.001

Further entries follow.

ESYT2 (UniProt H7BXI1)
inactive: [1] -0.081 | [3] -0.034 | Nexturastat A 0.156 | vemurafenib 0.133 | [5] -0.023 | [6] 0.09 | givinostat 0.009 | barasertib -0.075

ERN1 (UniProt O75460)
inactive: [1] -0.103 | [2] 0.145 | [3] -0.034 | [4] -0.052 | Nexturastat A 0.05 | [5] 0.192 | [6] -0.075 | givinostat -0.103

ERAL1 (UniProt O75616)
inactive: [1] 0.183 | [3] 0.054 | [4] 0.089 | Nexturastat A 0.138 | vemurafenib 0.005 | [5] 0.154 | [6] 0.01 | givinostat 0 | barasertib -0.084

EPS8L2 isoform 3 (UniProt Q9H6S3)
inactive: [1] 0.123 | [2] -0.099 | Nexturastat A -0.144 | givinostat -0.02

FAM172A (UniProt Q8WUF8)
inactive: [1] -0.031 | Nexturastat A -0.133 | vemurafenib -0.025 | [6] 0.04 | barasertib 0.114

EPHB4 (UniProt P54760)
inactive: [1] 0.057 | [2] -0.07 | [3] 0.392 | [5] -0.126 | [6] 0.001

ESF1 (UniProt Q9H501)
inactive: [1] -0.08 | [2] -0.101 | barasertib -0.246

ERF (UniProt P50548)
inactive: [1] -0.551 | Nexturastat A 0.033 | givinostat -0.133

ETF1 isoform 2 (UniProt P62495)
inactive: [2] 0.135 | [3] -0.11 | vemurafenib -0.269 | [5] -0.19 | barasertib 0.097

EVPL (UniProt Q92817)
inactive: [1] -0.313 | [2] -0.006 | [6] -0.119

ERCC8 (UniProt Q13216)
inactive: [1] -0.065 | [2] -0.027 | [3] 0.001 | [4] 0.038 | vemurafenib -0.139 | [5] -0.143 | [6] -0.055 | givinostat -0.007 | barasertib -0.021

EZH2 isoform 2 (UniProt Q15910)
inactive: [1] 0.063 | [3] 0.127 | [4] 0.149 | Nexturastat A -0.173 | vemurafenib 0.377 | [5] 0 | givinostat 0.097 | barasertib 0.045
active: [6] 0.949
